## Primary screen of a compound library

Values are the deposited “Percent Effect”, in %.
How 0% and 100% were set is not recorded. Most values in the screen are low, and negative values occur.
Compounds were drawn at random from those tested, without regard to their results.
A dash means the value is not listed here; it may have been measured.

A: 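Whole-parasite assay of Trypanosoma brucei over 72 hours; the read-out is not stated. Concentration: 30 µM. Direction is inferred from retests: higher values go with stronger inhibition. Values scatter widely below zero; nearly all retest evidence comes from the higher of the two concentrations used. About 64,000 compounds were tested under these conditions; 1.5% (about 940) showed 50% or more at least once.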
B: 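Assay of Toxoplasma gondii numbers, read through their beta-galactosidase reporter with a colour substrate. Concentration: 10 µM. The record gives no direction; the compounds picked for IC50 retests had high values, so higher reads as fewer parasites. Size under these conditions: about 67,000 compounds, about 260 of them at 50% or above in at least one test.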

Compound	A	B
O=C(Nc1cc(C(F)(F)F)c[nH]c1=O)N1CCOCC1	-	14.42%
CCCn1ccnc1CN1CCc2[nH]cnc2C1Cc1ccccc1 (centres unmarked)	-2.297%	5.03%
CC(C)c1nccc(-c2nccn2CCN(C)S(C)(=O)=O)n1	-16.96%	20.65%
CC[C@H](C)[C@H](N)C(=O)N1CC(=O)c2sc(Nc3ccc(F)cc3)nc2C1	54.3%	-4.294%
Cc1ccc(OCc2occc2C(=O)N2CCOC(C(=O)O)C2)cc1 (centres unmarked)	-53.38%	27.58%
CCC(CC)NC(=O)c1ccc2nnc(C3CCN(C(C)=O)C3)n2c1 (centres unmarked)	-36.15%	0.05977%
CCn1c(C2CCN(C(=O)c3cc(Cl)no3)CC2)nn(C)c1=O	-53.36%	-0.8179%
CN(Cc1ccc(F)cc1)CC1(O)CCN(C(=O)c2cccs2)C1 (centres unmarked)	-10.69%	6.964%
CC(C(=O)N(C)Cc1ccc(Br)o1)n1cccn1 (centres unmarked)	-25.15%	-5.605%
CCC1CN(C(=O)Cc2coc(-c3ccccc3)n2)CCO1 (centres unmarked)	-24.9%	-42.71%
Cn1cnc(C(=O)N2CC3(CCN(S(=O)(=O)c4ccccc4)C3)C2)c1	-29.73%	0.777%
[H][C@]12CC[C@]([H])(CN(c3cc(N)nc(SC)n3)C1)N(Cc1cscn1)C2=O	-23.35%	1.386%
COc1ccc(CN2CCN(CCn3ccnc3)CC2)cc1F	-10.48%	13.99%
NC(=O)CCNCc1c(Cl)cccc1N1CCCC1	7.297%	0.9185%
COc1cc(NC(=O)c2ccc(F)cc2Cl)c(C(=O)N(C)C)cc1OC	4.085%	0.814%
O=C(N[C@@H]1CN(Cc2c[nH]nc2-c2ccccc2)C[C@H]1O)c1cc[nH]n1	-4.567%	-24.89%
CN(CCOc1cccc(S(C)(=O)=O)c1)c1ccccc1	-2.31%	15.52%
Cc1nn(C)c(N(C)C)c1CNC1CCOc2ccccc21 (centres unmarked)	8.45%	-20.13%
CC(=O)N1CCN(c2cc(CCN)nc(C3CC3)n2)CC1.Cl	1.602%	3.065%
COCCSc1ccc(-n2ccnc2)nn1	-27.86%	7.247%
COC(=O)c1ccc(NC(=O)NC2CCc3[nH]ncc3C2)cc1 (centres unmarked)	7.451%	-3.946%
O=C(O)C(F)(F)F.[H][C@@]12OCCN(c3ncccn3)[C@@]1([H])CC[C@H]2OCC1CC1	-91.4%	4.585%
COc1cccc2c(=O)n(C3CCCNC3)cnc12 (centres unmarked)	-5.523%	3.738%
Fc1ccccc1CN1CCC(c2n[nH]c(C3CC3)n2)CC1	16.97%	5.401%
COc1cccc(CN2CCCCCC2c2cccs2)c1OC (centres unmarked)	-12.55%	11.58%
Cn1cc(CN2CCOC(CCNC(=O)c3ccsc3)C2)cn1 (centres unmarked)	2.51%	-19.04%
[H][C@@]12CCN(c3cc(Sc4cccs4)nc(N)n3)C[C@@]([H])(CC1)N2C	-71.54%	-14.13%
Cn1cc(Br)cc1C(=O)NC1(C#N)CC1	-58%	-2.36%
CC(=O)Nc1nc(C2CCN(C(C)=O)CC2)cs1	-11.15%	1.165%
CCCc1nnc(NC2CCN(CCO)CC2)o1	-22.83%	0.7991%
O=C(NC1CC1)N1CCC2(CC1)CC(N1CCOCC1)c1ccccc12.O=C(O)C(F)(F)F (centres unmarked)	-47.92%	-1.826%
O=C(O)C(F)(F)F.O=C(c1ccno1)N1CCc2ncnc(-c3ccncc3)c2CC1	-48.35%	5.42%
CCc1cc(NC2CCN(Cc3ccccc3F)CC2)n2nccc2n1	-10.88%	7.159%
CCC(C)N(Cc1cc(C)n[nH]1)Cc1ccccc1Cl (centres unmarked)	-15.36%	-0.05917%
Cc1nc(C)n(CC2CCCN(Cc3cc(C#N)ccc3F)C2)n1 (centres unmarked)	-4.933%	-15.19%
CC(C)(C)C(=O)N1CCC(c2cnc(-c3cn[nH]c3)cn2)CC1	-0.2544%	16.15%
Cc1nn(C)c(C)c1OCC(=O)N1CCC(O)(C(F)(F)F)CC1	-23.13%	-2.516%
Cc1cc(C)nc(N2CCC(C(=O)Nc3n[nH]c(C(C)C)n3)CC2)n1	-11.18%	12.19%
CCOCC1CN(S(=O)(=O)C2CC2)Cc2nn(C)cc21 (centres unmarked)	-37.46%	-10.17%
COCCN(C(=O)c1nc(-c2ccco2)sc1C)C1CC1	-5.619%	17.09%
COCCNC(=O)c1ccc2ccc(N3CCN(CC4CC4)CC3)n2c1	-2.625%	2.626%
COC1CCN(C(=O)CCn2cccn2)CC1	-	-10.5%

Once more, the final 3:

| Compound | A | B |
|---|---|---|
| `COCCN(C(=O)c1nc(-c2ccco2)sc1C)C1CC1` | -5.619% | 17.09% |
| `COCCNC(=O)c1ccc2ccc(N3CCN(CC4CC4)CC3)n2c1` | -2.625% | 2.626% |
| `COC1CCN(C(=O)CCn2cccn2)CC1` | - | -10.5% |

The values are deposited in ChEMBL (CHEMBL3988442, “University of Dundee, Small-Polar-MMV Screening Library” (2021)).